Data from article PMC6925144, “A prospective compound screening contest identified broader inhibitors for Sirtuin 1” (Scientific Reports, 2019).
Over roughly 3,200 compounds, “TSA(with NAD+) / Primary screening (TSA) / delta Tm (K)” has its median near -0.04; the highest 2% begin near 0.37. Some of the results follow.

Protein sequences, listed by entry. Tags and fused reporters are not part of them. Residues count along the entry.
UniProt Q96EB6, 2-747 limits assumed: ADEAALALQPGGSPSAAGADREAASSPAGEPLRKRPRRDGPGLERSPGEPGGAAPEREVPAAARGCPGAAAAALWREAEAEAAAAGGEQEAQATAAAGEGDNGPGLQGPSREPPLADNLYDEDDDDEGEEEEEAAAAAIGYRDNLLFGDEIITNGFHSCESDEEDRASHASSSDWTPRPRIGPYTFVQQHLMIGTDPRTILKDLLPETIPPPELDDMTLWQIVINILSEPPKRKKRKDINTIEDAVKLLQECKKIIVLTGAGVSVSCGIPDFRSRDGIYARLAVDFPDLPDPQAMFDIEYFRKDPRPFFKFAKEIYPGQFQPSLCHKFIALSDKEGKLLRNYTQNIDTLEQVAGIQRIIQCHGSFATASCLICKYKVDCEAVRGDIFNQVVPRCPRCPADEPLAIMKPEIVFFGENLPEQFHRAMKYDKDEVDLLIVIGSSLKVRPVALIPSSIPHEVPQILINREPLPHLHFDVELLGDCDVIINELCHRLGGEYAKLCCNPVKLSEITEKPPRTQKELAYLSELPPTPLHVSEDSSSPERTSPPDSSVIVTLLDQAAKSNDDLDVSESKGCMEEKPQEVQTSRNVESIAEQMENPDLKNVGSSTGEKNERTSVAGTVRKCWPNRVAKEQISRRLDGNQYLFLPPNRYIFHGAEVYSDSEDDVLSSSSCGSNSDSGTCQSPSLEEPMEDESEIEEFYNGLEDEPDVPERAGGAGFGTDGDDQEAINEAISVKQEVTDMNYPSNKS

Molecular target: NAD-dependent deacetylase Sirtuin 1 (human, UniProt Q96EB6)
Assay: primary screen, delta tm
Parameters: single well (n = 1, as 'the same TSA')
Settings: 10 µM

| Compound | TSA(with NAD+) / Primary screening (TSA) / delta Tm (K) |
| --- | --- |
| NC(=O)c1ccc(COC(=O)c2ccc(S(N)(=O)=O)cc2)cc1 | 0.06 |
| O=C(Cc1noc2ccccc12)NCc1ccc(N2CCCC2=O)cc1 | 0.05 |
| O=C(CCc1cccnc1)NCCCc1nc2ccccc2[nH]1 | -0.28 |
| Cc1cc(=O)oc2cc(OCC(=O)Nc3ccc4ccccc4c3)ccc12 | -0.04 |
| OC1CN(c2ncnc3c2oc2ccccc23)C1 | -0.01 |
| CS(=O)(=O)Nc1cccc(OCCNC(=O)C2=NN(Cc3ccccc3)C(=O)CC2)c1 | -0.04 |
| COc1cc(CNC(=O)CCc2c(C)nc(N3CCOCC3)[nH]c2=O)ccc1OCc1ccccc1 | -0.03 |
| COc1ccc(NC(=O)C2=COCCO2)cc1S(=O)(=O)N1CCOCC1 | -0.29 |
| Cc1ccc(N(C)S(=O)(=O)c2cccc(C(=O)NCCc3c[nH]c4ccccc34)c2)cc1 | 0.18 |
| O=[N+]([O-])c1ccc(/C=C/C2=NN(c3ccccc3)C(c3ccco3)C2)o1 (centres unmarked) | 0.06 |
| O[C@H]1CCN(c2ncnc3ccsc23)C1 | 0.01 |
| O=C(CN1CCc2ccccc21)Nc1cnc2ccccc2c1 | -0.13 |
| O=C(O)CN1C(=O)CSC1=S | -0.09 |
| NC(=O)c1ccc(F)c(NC(=O)NCc2ccc(N3CCCCCC3)nc2)c1 | -0.01 |
| COc1ccc(N2C(=O)/C(=C/NNC(=O)C34CC5CC(CC(C5)C3)C4)c3ccccc3C2=O)cc1 | 0.18 |
| CC1CCCCN1CCCCNC(=O)c1ccc2c(c1)C(=O)N(CCc1ccccc1)C2=O (centres unmarked) | -0.03 |
| COCCNc1oc2c(c1-c1ccccc1[N+](=O)[O-])c(=O)oc1ccc(C)cc12 | -0.23 |
| NC(=O)c1ccc(N2CCCC2)c(NC(=O)CCNC(=O)Cc2ccccc2)c1 | 0.16 |
| O=C(/C=C/c1ccc2c(c1)OCO2)N1CCCC1c1nc2ccccc2s1 (centres unmarked) | -0.11 |
| CCOC(=O)N(C)CC(=O)Nc1ccc(-n2cnc3ccccc32)nc1 | 0.15 |
| COc1cccc(NC(=O)COc2ccc(C(=O)NC(C)C34CC5CC(CC(C5)C3)C4)cc2)c1 (centres unmarked) | -0.12 |
| O=c1c2ccccc2ncn1CC(O)c1cccc(F)c1 (centres unmarked) | -0.19 |
| CC1CCc2c(sc3nc4c5ccccc5c5nnnn5n4c(=O)c23)C1 (centres unmarked) | -0.02 |

| Compound | TSA(with NAD+) / Primary screening (TSA) / delta Tm (K) |
| --- | --- |
| COc1cc(CN(C)C(=O)CN2C(=O)COc3ccccc32)ccc1OCc1ccccc1 | -0.02 |
| COC(=O)Cn1cnc2c(N)ncnc21 | -0.03 |
| COc1ccc(C)cc1N1CC(C(=O)N2CCC(OC)CC2)CC1=O (centres unmarked) | 0.06 |
| O=C1NC(=S)NC(=O)C1=NNc1c(F)cccc1F | -0.05 |
| NNc1ncnc2c1cnn2-c1ccccc1 | -0.11 |
| COC(=O)c1cc2ccccc2c(CN(C)Cc2ccc(C(N)=O)cc2)c1O | -0.13 |
| NC(=O)c1ccc(NC(=O)COC(=O)COc2ccc3c(c2)CCC3)cc1 | -0.04 |
| Cc1nc(-c2ccc(CNC(=O)c3cccc([N+](=O)[O-])c3)cc2)cs1 | -0.04 |
| O=c1c2ccccc2ncn1CC(O)c1ccccc1Cl (centres unmarked) | 0.38 |
| CCOc1ccc(Oc2ccc(NC(=O)CNC(=O)CC34CC5CC(CC(C5)C3)C4)cc2)cc1 | 0.12 |
| Cc1nc(SCC(=O)N(C)C2CCCc3ccccc32)c2ccccc2n1 (centres unmarked) | -0.18 |
| Cc1cccc(C)c1OC(=O)c1ccc(C#N)cc1 | -0.06 |
| Cc1nc(-c2ccccn2)[nH]c(=O)c1CC(=O)NCc1cccc(Oc2ccccc2)c1 | 0.16 |
| CC(CN1CCOCC1)NC(=O)C(Cc1ccccc1)n1cnnn1 (centres unmarked) | -0.09 |
| CS(=O)(=O)c1ccc(NC(=O)c2ccccc2SCC(=O)NC23CC4CC(CC(C4)C2)C3)cc1 | -0.09 |
| CCS(=O)(=O)Nc1ccc(C(C)NCc2cnn(C)c2C)cc1 (centres unmarked) | -0.13 |
| O=C(Nc1cccc(S(=O)(=O)NCc2ccco2)c1)c1ccccc1OCc1ccccc1Cl | 0.17 |
| O=C(COc1ccccc1-c1ccccc1)Nc1cccc(S(=O)(=O)NCc2ccco2)c1 | -0.02 |
| Cc1ccc(NC(=O)C(OC(=O)C23CC4CC(CC(O)(C4)C2)C3)c2ccccc2)c([N+](=O)[O-])c1 (centres unmarked) | -0.13 |
| CC(=O)Nc1ccc(NCc2nnc3n(C)c(=O)c4ccccc4n23)cc1Cl | -0.06 |
| CCOc1ccc(C(=O)NCCc2ccc(S(N)(=O)=O)cc2)cc1 | 0.16 |
| Cc1cnn(CCNCc2coc(-c3ccccc3Cl)n2)c1 | -0.26 |
| Cc1ccc(C(=O)NC(C)c2nc(C)c(C(=O)O)s2)s1 (centres unmarked) | -0.28 |

Some of the entries so far, tab-delimited:
Compound	TSA(with NAD+) / Primary screening (TSA) / delta Tm (K)
Cc1nc(-c2ccc(CNC(=O)c3cccc([N+](=O)[O-])c3)cc2)cs1	-0.04
O=C(COc1ccccc1-c1ccccc1)Nc1cccc(S(=O)(=O)NCc2ccco2)c1	-0.02

(listing goes on)

| Compound | TSA(with NAD+) / Primary screening (TSA) / delta Tm (K) |
| --- | --- |
| Cn1cnnc1Sc1ccc(Cl)cc1NC(=O)c1cnc2ccccc2n1 | -0.03 |
| Cc1ccc(Cl)cc1NC(=O)CC#N | -0.03 |
| CCc1ccc(C(Nc2ccc3nnnn3n2)c2cccc(F)c2)cc1 (centres unmarked) | 0.08 |
| CN(c1ccc(C(N)=O)cc1)S(=O)(=O)c1ccccc1 | -0.14 |
| NC(=O)c1c(NC(=O)CSc2nnc(N3CCCC3)n2CC2CCCO2)sc2c1CCCC2 (centres unmarked) | 0.01 |
| COC(=O)c1cn(CC(=O)NCCc2cccs2)c2ccccc12 | 0.06 |
| CC(c1ccco1)N(C)CC(=O)N1CCC(C(N)=O)CC1 (centres unmarked) | -0.06 |
| O=C(NCc1ccc(N2CCCC2)cc1)c1csc([N+](=O)[O-])c1 | -0.03 |
| CCCN(C(=O)c1ccc(Oc2ccccc2)cc1)C1CCS(=O)(=O)C1 (centres unmarked) | -0.32 |
| O=C1/C(=C/c2cc3c(cc2Br)OCO3)Oc2cc(O)ccc21 | -0.03 |
| O=C(NCc1ccc(-n2cccn2)nc1)c1ccc(/C=C/c2ccc3ccccc3n2)cc1 | -0.18 |
| Cc1c2c(nc3c1oc1ccccc13)CCCCCCCCCC2 | -0.08 |
| CON(C)C(=O)c1[nH]c2ccc(C)cc2c1C | 0.06 |
| Cc1ccc(N(C)S(=O)(=O)c2cccc(C(=O)NNC(=O)CC34CC5CC(CC(C5)C3)C4)c2)cc1 | 0.19 |
| O=C1CCCN1c1cccc(NS(=O)(=O)c2cccc(F)c2)c1 | -0.08 |
| O=C(CCc1ccccc1F)NCc1cccc(NC(=O)c2ccncc2)c1 | 0.03 |
| CCCCCCC(C)NN (centres unmarked) | -0.11 |
| NC(=O)c1ccc(NC(=O)NCc2ccnc3ccccc23)cc1Cl | 0.08 |
| Cc1cc(CC(=O)N2CCC3(CCC3)C2)n[nH]1 | -0.13 |
| CN(C(=O)CSc1nc(-c2cccs2)cc(C(F)(F)F)c1C#N)C1CCS(=O)(=O)C1 (centres unmarked) | -0.08 |
| COC(=O)C(CNC(=O)c1ccc2nccn2c1)c1ccc(F)cc1 (centres unmarked) | 0.02 |
| CC1CC(C)(C)CC2(C1)NC(=O)N(CC(=O)Nc1ccc(C(N)=O)cc1)C2=O (centres unmarked) | -0.15 |
| Cc1nc2ccccc2c(C)c1CC(=O)NC1CCCc2ccccc21 (centres unmarked) | -0.02 |

Two records drawn at random from the list so far:

| Compound | TSA(with NAD+) / Primary screening (TSA) / delta Tm (K) |
| --- | --- |
| O=C(CCc1ccccc1F)NCc1cccc(NC(=O)c2ccncc2)c1 | 0.03 |
| CCCCCCC(C)NN (centres unmarked) | -0.11 |

Next structures follow.

| Compound | TSA(with NAD+) / Primary screening (TSA) / delta Tm (K) |
| --- | --- |
| O=C(Cn1[nH]c(=O)c2ccccc2c1=O)NC1CCCc2ccccc21 (centres unmarked) | -0.04 |
| O=C(CCCc1nc2ccccc2c(=O)[nH]1)NC1CCCc2ccccc21 (centres unmarked) | -0.23 |
| O=C(OCc1cc(=O)n2c(n1)sc1ccccc12)c1ccc2[nH]c3c(c2c1)CCCC3 | 0.09 |
| CC1(C)Cc2cccc(OCC(=O)OCC(=O)Nc3ccc(C(N)=O)cc3)c2O1 | 0.08 |
| O=C(c1ccccc1)C(Sc1nc(-c2ccccc2)n[nH]1)c1ccccc1 (centres unmarked) | 0.12 |
| O=C(O)CNCC(=O)O | -0.01 |
| CC(C)(C)OC(=O)NC1CCN(CC(=O)NCCNc2ncnc3sccc23)CC1 | -0.01 |
| C[C@H]1CNCCN1 | -0.05 |
| COc1ccccc1NS(=O)(=O)c1cccc(NC(=O)c2oc3ccccc3c2CSC)c1 | -0.08 |
| NC(=O)c1ccc(OCC(=O)N(CCc2ccccc2)Cc2ccccc2)cc1 | -0.12 |
| CN(Cc1cnn(Cc2ccccc2)c1)C(=O)CCc1ncc(-c2c(F)cccc2F)o1 | -0.03 |
| Cn1c(=O)[nH]c(=O)c2c1nc(N1CCC(C(N)=O)CC1)n2CCSc1ncccn1 | -0.02 |
| COc1ccc(OCCN(C)C(=O)c2ccc(NC3=NS(=O)(=O)c4ccccc43)cc2)cc1 | 0.16 |
| COC(=O)c1cc(-c2csc(NC(=O)c3cccc(NC(=O)c4cnoc4C)c3)n2)c[nH]1 | 0.67 |
| O=c1cc(N2CCC(Nc3ccccc3)CC2)nc2ccccn12 | 0.07 |
| O=C1CC[C@@H](Nc2cnc3cc(F)c(F)cc3n2)[C@H](c2ccccc2)N1 | 0.15 |
| Nc1ccc(-n2ncc3c(=O)[nH]cnc32)cc1 | 0.35 |
| Cc1cc(C)c2c(n1)sc1c(N3CCOCC3)ncnc12 | 0.08 |
| C1CCCC2(CC1)CCNC2 | -0.12 |
| Cc1ccc(N(C)S(=O)(=O)c2cccc(C(=O)NNC(=O)c3ccncc3)c2)cc1 | -0.01 |
| CN(C)c1ccnc(N2CCCC(N3CCNC3=O)C2)n1 (centres unmarked) | -0.11 |
| O=C(Nc1ccc2[nH]c(=O)[nH]c2c1)c1cc(S(=O)(=O)NCC2CCCO2)ccc1Br (centres unmarked) | -0.01 |
| Cc1c(C(=O)C2=C(O)C(=O)N(CCCN3CCOCC3)C2c2ccco2)cnn1-c1ccccc1 (centres unmarked) | -0.05 |

Grouped by structure: the entries above containing a COOH group

| Compound | TSA(with NAD+) / Primary screening (TSA) / delta Tm (K) |
| --- | --- |
| O=C(O)CN1C(=O)CSC1=S | -0.09 |
| Cc1ccc(C(=O)NC(C)c2nc(C)c(C(=O)O)s2)s1 (centres unmarked) | -0.28 |
| O=C(O)CNCC(=O)O | -0.01 |
